Test results reported in PubChem BioAssay AID504467 (National Center for Advancing Translational Sciences (NCATS), 2011).
About 7,700 (2.3%) of roughly 330,000 compounds were called active. The shares of active, inactive and inconclusive entries below differ from those in the screen. The call rests on the fitted dose curve; in most records, active means well fitted inhibition curve with a large enough effect; inconclusive means small, poorly fitted or top-dose-only effect, or effect the other way; inactive means flat fitted curve, though single readings scatter. Where the call is inconclusive, the potency comes from a doubtful curve fit.

assay: qHTS screen for small molecules that inhibit ELG1-dependent DNA repair in human embryonic kidney (HEK293T) cells expressing luciferase-tagged ELG1; conditions: HEK293T ELG1-luciferase reporter, luminescence, 16 h, DNA damage induced by 5-fluorouridine; series mostly up to 46.1 µM; further: nearly all actives have a fitted effect of over 55% in size
Procedure, shortened: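 Cells (2,000 per well) received 5-fluorouridine plus test compound or DMSO and were incubated 16 hr at 37 °C, 5% CO2. Luciferase activity was read by luminescence 30 min after ONE-Glo addition; signal suppression marked inhibition of damage-induced ELG1 function.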
Potency means the concentration at half of the fitted maximal effect.

| SMILES | Potency |
| --- | --- |
| Cc1cc(C)cc(Nc2ncc3c(n2)CC(c2ccco2)CC3=O)c1 (stereo not given) | inconclusive: 20.6 µM [inhibitor, single point] |
| N#C/C(=C\c1ccc(-c2ccc(C(=O)O)cc2)o1)C(=O)NCC1CCCO1 (stereo not given) | inconclusive: 23.1 µM [activator, single point] |
| O=C(Cc1ccccc1)NCC(=O)Nc1ccccc1Br | inconclusive: 18.3 µM [activator, single point] |
| Cn1cnc2cc(NC(=O)c3ccco3)ccc21 | inconclusive: 10.3 µM [activator, partial curve] |
| CCCn1c(N2CCN(CC(=O)c3c(C)n(C)c4ccc(OC)cc34)CC2)nc2c1c(=O)[nH]c(=O)n2C | active: 1.46 µM |
| CCOc1ccc(N(CC(=O)NC(C)(C)C)C(=O)CCC(=O)Nc2nccs2)cc1 | inactive |
| O=C(CCCCn1c(=O)c2ccccc2n(Cc2ccc(F)cc2Cl)c1=O)NCc1ccco1 | inconclusive: 29.1 µM [inhibitor, single point] |
| Cc1ccc(-n2ncc3c2ncn2c(C)nnc32)cc1C | inconclusive: 8.2 µM [activator, partial curve] |
| CC1CCN(c2oc(-c3ccccc3F)nc2C#N)CC1 | inconclusive: 25.9 µM [activator, single point] |
| O=C(NCc1ccco1)c1cc(-c2ccc3c(c2)OCO3)on1 | inconclusive: 13 µM [activator, partial curve] |
| CCOC(=O)c1cc(-c2ccc(/C=N\n3cnnc3)o2)ccc1Cl | inconclusive: 32.6 µM [inhibitor, partial curve, poor fit] |
| CN(C(=O)c1cccnc1)c1nnc(-c2cnccn2)s1 | inconclusive: 13 µM [activator, single point] |
| C/C(=N\Nc1nc2c(s1)CCCC2)c1ccccc1 | inconclusive: 2.31 µM [activator, full curve] |
| Cc1ccccc1-n1nnnc1SCC(=O)Nc1ccc(S(=O)(=O)N2CCCC2)cc1 | inconclusive: 16.4 µM [inhibitor, partial curve, poor fit] |
| CC1(OC(=O)C2CCCC2)C(=O)C=C2C=C(c3ccsc3)N(C3CC3)C=C2C1=O (stereo not given) | inactive |
| CCOC(=O)c1sc2nc(C)nc(N3CCN(S(=O)(=O)c4ccccc4)CC3)c2c1C | active: 23.1 µM |
| COc1ccc(NC(=O)CN2CCN(CC(=O)Nc3ccccc3Cl)CC2)c(OC)c1 | inconclusive: 23.1 µM [inhibitor, partial curve] |
| NC(=O)c1cc([N+](=O)[O-])ccc1NCc1cccc2ccccc12 | inactive |
| CNC(=O)CCc1ccc(OC)cc1 | inconclusive: 20.6 µM [activator, single point] |
| Cc1ccc(C(=O)Nc2ccc(-c3csc(C)n3)cc2)cc1 | inconclusive: 2.91 µM [activator, full curve] |
| CN1/C(=C\C(=O)COC(=O)c2ccccc2O)C(C)(C)c2ccccc21 | inconclusive: 2.06 µM [activator, partial curve, poor fit] |
| COC(=O)c1ccc(OC(=O)CS(=O)c2ccccc2[N+](=O)[O-])cc1 (stereo not given) | inactive |
| COc1ccc(-c2csc3ncnc(Oc4cccc5ccc(C)nc45)c23)cc1 | inconclusive: 29.1 µM [inhibitor, single point] |

Two of these compounds in another layout.
SMILES	Potency
CCOC(=O)c1sc2nc(C)nc(N3CCN(S(=O)(=O)c4ccccc4)CC3)c2c1C	active: 23.1 µM
COc1ccc(NC(=O)CN2CCN(CC(=O)Nc3ccccc3Cl)CC2)c(OC)c1	inconclusive: 23.1 µM [inhibitor, partial curve]

Remaining list, next part:

| SMILES | Potency |
| --- | --- |
| CCOc1cc(/C=C2\C(=O)ON=C2c2ccccc2)cc(Br)c1O | inconclusive: 16.4 µM [activator, single point] |
| Cc1ccc(/C=C/C(=O)N2CCN(S(=O)(=O)c3cccs3)CC2)o1 | inactive |
| Cc1cccc(Nc2nc(N3CCOCC3)nc(N3CCOCC3)n2)c1 | active: 7.3 µM |
| O=S(=O)(Cc1ccccc1)N(O)c1ccccc1 | inactive |
| Cn1nc(-c2ccc(Cl)cc2)c2cc(C(=O)N3CCN(c4ccccc4)CC3)sc21 | inconclusive: 11.6 µM [inhibitor, partial curve, poor fit] |
| COc1ccc(N=C2SC(C(=O)N3CCN(c4ccc([N+](=O)[O-])cc4)CC3)CC(=O)N2C)cc1 (stereo not given) | inconclusive: 16.4 µM [inhibitor, single point] |
| CCOc1ccc(N2C(=O)CC(Cc3ccc(Br)cc3)C2=O)cc1 (stereo not given) | inactive |
| Cc1ccc(Nc2ccc(C(=O)N3CCCC3)cn2)c(C)c1 | inactive |
| O=C(Nc1ccc(N2CCCC2)c(Cl)c1)c1ccco1 | inconclusive: 2.06 µM [activator, partial curve] |
| O=C(C[n+]1ccccc1)Nc1ccccc1[N+](=O)[O-] | inactive |
| O=C1N=C(N2CCCCC2)S/C1=C\c1cn[nH]c1-c1ccccc1 | inactive |
| O=C(NC(=S)NNC(=O)c1cnccn1)c1ccc(F)cc1 | active: 5.17 µM |
| C=CCNc1nc(-c2c(C)nc3sccn23)cs1 | inactive |
| CC1CCC(NS(=O)(=O)c2ccc(N3CCCC3=O)cc2)CC1 (stereo not given) | inconclusive: 16.4 µM [inhibitor, partial curve, poor fit] |
| O=C(NC(C(=O)c1ccccc1)N1CCOCC1)c1cccs1 (stereo not given) | inconclusive: 23.1 µM [activator, partial curve] |
| Cc1cccc(/C=N/c2sc3c(c2C#N)CCN(Cc2ccccc2)C3)c1O | inactive |
| O=C(N/N=C/c1[nH]c2ccccc2c1Cl)c1cccc(Br)c1 | inconclusive: 5.8 µM [inhibitor, partial curve, poor fit] |
| O=C(NN=C1CCCC1)c1[nH]c2ccc(Br)cc2c1-c1ccccc1 | inconclusive: 25.9 µM [inhibitor, single point] |
| C[C@]12c3[nH]c4cc(-c5ccco5)ccc4c3CCN1C(=O)[C@@H](CC(=O)NCc1cccc(C(F)(F)F)c1)C[C@@H]2C(=O)N1CCOCC1 | inconclusive: 29.1 µM [inhibitor, single point] |
| COc1ccc2oc3ccc(OC)cc3c(=O)c2c1 | inconclusive: 13 µM [activator, partial curve] |
| CS(=O)(=O)N(CCc1ccccc1)CC(=O)N1CCN(Cc2ccccc2)CC1 | inconclusive: 5.8 µM [inhibitor, partial curve] |
| Cc1ccc(Cl)c2c1NC(=O)C2=O | inconclusive: 18.3 µM [activator, single point] |
